Most values lie at the level of the controls, where differences are scatter.
Tests used:
Test in all cases: normalised response (% of control), CellTox Green; higher = less cell death (100 = DMSO, 0 = benzethonium chloride kill control)
Settings in all cases: incubation time: 72 h
BT-474 [1] = test system: BT-474
Method: (§1)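 DSRT, 72 h incubation, CellTox Green / CellTiter-Glo readout. Signal is normalised to DMSO and benzethonium chloride controls. Value is the normalised response at the lowest tested concentration.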

BT-549 [2] = test system: BT-549
Method: as §1

CAL-120 [3] = test system: CAL-120
Method: as §1

CAL-148 [4] = test system: CAL-148
Method: as §1

CAL-51 [5] = test system: CAL-51
Method: as §1

CAL-85-1 [6] = test system: CAL-85-1
Method: as §1

DU-4475 [7] = test system: DU-4475
Method: as §1

HCC1143 = test system: HCC1143
Method: as §1

HCC1599 [8] = test system: HCC1599
Method: as §1

HCC1937 = test system: HCC1937
Method: as §1

Hs578T [9] = test system: Hs578T
Method: as §1

MCF-10A = test system: MCF-10A
Method: as §1

MDA-MB-231 [10] = test system: MDA-MB-231
Method: as §1

MDA-MB-436 [11] = test system: MDA-MB-436
Method: as §1

MDA-MB-453 [12] = test system: MDA-MB-453
Method: as §1

MDA-MB-468 [13] = test system: MDA-MB-468
Method: as §1

MFM-223 [14] = test system: MFM-223
Method: as §1

HDQ-P1 [15] = test system: HDQ-P1
Method: as §1

BT-474 [16] = test system: BT-474; remark: listed apart in the source
Method: (§2)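 DSRT, 72 h incubation, CellTox Green / CellTiter-Glo readout. Signal is normalised to DMSO and benzethonium chloride controls. Value is the normalised response at dose 2.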

BT-549 [17] = test system: BT-549; remark: listed apart in the source
Method: as §2

CAL-120 [18] = test system: CAL-120; remark: listed apart in the source
Method: as §2

CAL-148 [19] = test system: CAL-148; remark: listed apart in the source
Method: as §2

CAL-51 [20] = test system: CAL-51; remark: listed apart in the source
Method: as §2

CAL-85-1 [21] = test system: CAL-85-1; remark: listed apart in the source
Method: as §2

DU-4475 [22] = test system: DU-4475; remark: listed apart in the source
Method: as §2

HCC1599 [23] = test system: HCC1599; remark: listed apart in the source
Method: as §2

HDQ-P1 [24] = test system: HDQ-P1; remark: listed apart in the source
Method: as §2

Hs578T [25] = test system: Hs578T; remark: listed apart in the source
Method: as §2

MDA-MB-231 [26] = test system: MDA-MB-231; remark: listed apart in the source
Method: as §2

MDA-MB-436 [27] = test system: MDA-MB-436; remark: listed apart in the source
Method: as §2

MDA-MB-453 [28] = test system: MDA-MB-453; remark: listed apart in the source
Method: as §2

MDA-MB-468 [29] = test system: MDA-MB-468; remark: listed apart in the source
Method: as §2

MFM-223 [30] = test system: MFM-223; remark: listed apart in the source
Method: as §2

| SMILES | normalised response (BT-474 [1]) [%] | normalised response (BT-549 [2]) [%] | normalised response (CAL-120 [3]) [%] | normalised response (CAL-148 [4]) [%] | normalised response (CAL-51 [5]) [%] | normalised response (CAL-85-1 [6]) [%] | normalised response (DU-4475 [7]) [%] | normalised response (HCC1143) [%] | normalised response (HCC1599 [8]) [%] | normalised response (HCC1937) [%] | normalised response (Hs578T [9]) [%] | normalised response (MCF-10A) [%] | normalised response (MDA-MB-231 [10]) [%] | normalised response (MDA-MB-436 [11]) [%] | normalised response (MDA-MB-453 [12]) [%] | normalised response (MDA-MB-468 [13]) [%] | normalised response (MFM-223 [14]) [%] | normalised response (HDQ-P1 [15]) [%] | normalised response (BT-474 [16]) [%] | normalised response (BT-549 [17]) [%] | normalised response (CAL-120 [18]) [%] | normalised response (CAL-148 [19]) [%] | normalised response (CAL-51 [20]) [%] | normalised response (CAL-85-1 [21]) [%] | normalised response (DU-4475 [22]) [%] | normalised response (HCC1599 [23]) [%] | normalised response (HDQ-P1 [24]) [%] | normalised response (Hs578T [25]) [%] | normalised response (MDA-MB-231 [26]) [%] | normalised response (MDA-MB-436 [27]) [%] | normalised response (MDA-MB-453 [28]) [%] | normalised response (MDA-MB-468 [29]) [%] | normalised response (MFM-223 [30]) [%] |
| --- | --- | --- | --- | --- | --- | --- | --- | --- | --- | --- | --- | --- | --- | --- | --- | --- | --- | --- | --- | --- | --- | --- | --- | --- | --- | --- | --- | --- | --- | --- | --- | --- | --- |
| CCn1c(C(=O)N(C2CC2)C2CC2)cc2c3c(ncn3C)c(Nc3cc(C)n(C)n3)nc21 (1 nM) | 96.7 | 99.5 | 105 | 103 | 97.7 | 101 | 106 | 119 | 112 | 88.2 | 108 | 108 | 117 | 102 | 80.3 | 95.9 | 103 | – | – | – | – | – | – | – | – | – | – | – | – | – | – | – | – |
| CC(=O)Nc1ccc(C(=O)Nc2ccccc2N)cc1 [Tacedinaline] (0.1 nM) | 98.8 | 98.8 | 99.7 | 52.4 | 113 | 103 | 98 | 79 | 91.2 | 103 | 83.8 | 93.6 | 93 | 85.7 | 71.7 | – | 98.9 | 98.7 | – | – | – | – | – | – | – | – | – | – | – | – | – | – | – |
| CC(=O)O[C@@]12CO[C@@H]1C[C@H](O)[C@@]1(C)C(=O)[C@H](O)C3=C(C)[C@@H](OC(=O)[C@H](O)[C@@H](NC(=O)OC(C)(C)C)c4ccccc4)C[C@@](O)([C@@H](OC(=O)c4ccccc4)[C@H]21)C3(C)C [Docetaxel] (0.1 nM) | 99.4 | 100 | 97.6 | 98.6 | 97.1 | 95.4 | 97.2 | 119 | 94.1 | 104 | 89.8 | 95.3 | 104 | – | 105 | 90.7 | 84.3 | – | – | – | – | – | – | – | – | – | – | – | – | – | – | – | – |
| Nc1ccccc1NC(=O)c1ccc(CNC(=O)OCc2cccnc2)cc1 [Entinostat] (1 nM) | 100 | 89.1 | 101 | – | 71.8 | 104 | 98.6 | 122 | 96.9 | – | 80.1 | – | 61.2 | – | 102 | – | 96.3 | 98.8 | – | – | – | – | – | – | – | – | – | – | – | – | – | – | – |
| CC(C)(C#N)c1cc(Cn2cncn2)cc(C(C)(C)C#N)c1 [Anastrozole] (10 nM) | – | – | – | – | – | – | – | – | – | – | – | – | – | – | – | – | – | – | 103 | 110 | 101 | 105 | 93.1 | 106 | 99.2 | 94.7 | 112 | 100 | 98.2 | 56.1 | 96 | 137 | 68.9 |
| Cn1c(=O)n(-c2ccc(C(C)(C)C#N)cc2)c2c3cc(-c4cnc5ccccc5c4)ccc3ncc21 [Dactolisib] (0.1 nM) | 98.5 | 102 | 99.5 | 107 | 117 | 99.3 | 103 | 117 | 90.9 | 74.6 | 112 | 99.9 | 106 | 103 | 113 | 118 | 64.6 | – | – | – | – | – | – | – | – | – | – | – | – | – | – | – | – |
| CC(=O)N(O)CCCCCNC(=O)CCC(=O)N(O)CCCCCNC(=O)CCC(=O)N(O)CCCCCN [Deferoxamine] (1 nM) | 97.3 | 96.2 | 102 | 90.8 | 107 | 115 | 98.7 | – | 98.3 | 107 | 74.2 | 101 | 96.5 | 50.6 | – | – | 101 | 66.7 | – | – | – | – | – | – | – | – | – | – | – | – | – | – | – |
| C[C@]1(O)C[C@@H](c2nc(-c3ccc4ccc(-c5ccccc5)nc4c3)c3c(N)nccn32)C1 [Linsitinib] (1 nM) | 95 | 87.5 | 95.3 | 103 | 105 | 101 | 96.7 | 107 | 93.2 | 93.8 | 102 | 70.4 | 90.7 | 92.2 | 101 | 77.6 | 102 | – | – | – | – | – | – | – | – | – | – | – | – | – | – | – | – |
| C=CCN(/C=C1/C(=O)O[C@H](COC)[C@@]2(C)C1=C(O)C(=O)C1=C2[C@H](OC(C)=O)C[C@]2(C)C(=O)CC[C@@H]12)CC=C [Sonolisib] (1 nM) | 98.7 | 92.8 | 102 | 87.3 | 99.8 | 97.3 | 102 | 90.1 | 100 | 98.3 | 83.8 | 97.6 | 104 | 93.7 | 111 | 89.7 | 59.7 | – | – | – | – | – | – | – | – | – | – | – | – | – | – | – | – |

Quoted from the listing.
Under normalised response (Hs578T [9]) [%], CCn1c(C(=O)N(C2CC2)C2CC2)cc2c3c(ncn3C)c(Nc3cc(C)n(C)n3)nc21 (1 nM) shows 108
Under normalised response (CAL-51 [5]) [%], CC(=O)Nc1ccc(C(=O)Nc2ccccc2N)cc1 [Tacedinaline] (0.1 nM) shows 113

Reference: the supplement of paper PMC4862054
